Laboratory results: PubChem BioAssay AID743121 (NCATS, 2013)

- Purpose: 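Genes whose silencing strengthens cell killing by camptothecin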 (primary screen)
- Cell system: MDA-MB-231 cells, a human breast cancer line
- Knock-down reagent: single siRNA against human genes, 20 nM siRNA (0.8 pmol per well)
- Duration: 120 h (drug added 48 h after transfection, read 72 h later)
- Challenge: camptothecin 20 nM (about EC30) for 72 h; vehicle 0.1% DMSO in parallel plates
- Measurement: 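Cell viability by ATP luminescence (CellTiter-Glo) as % of non-targeting siRNA wells, and the log2 ratio of viability without drug over viability with camptothecin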
- Reading the numbers: log2 vehicle/camptothecin viability: higher = stronger sensitisation to camptothecin; viability with camptothecin: higher = more viable cells
- Active means: 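Each gene scored by redundant siRNA activity (RSA) over its individual siRNA ratios; a gene is called active at p < 0.001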
In all, the deposit lists about 26,000 reagents; shown is a part drawn at random. Over the whole deposit, 167 (0.63%) were called active. 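Calls are per gene from RSA p-values that are not deposited; an individual active-marked siRNA can sensitise only weakly.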 The numbers tell different reagents against one gene apart. Not all columns of the deposit are shown.

SLC10A6 #1 → log2 vehicle/camptothecin viability = -0.216; viability with camptothecin (% of control) = 107; Call = inactive
SLC10A6 #2 → log2 vehicle/camptothecin viability = 0.0383; viability with camptothecin (% of control) = 99.3; Call = inactive
SLC10A6 #3 → log2 vehicle/camptothecin viability = -0.228; viability with camptothecin (% of control) = 59.5; Call = inactive
SLC10A6 #4 → log2 vehicle/camptothecin viability = -0.192; viability with camptothecin (% of control) = 82.5; Call = inactive
CRX #1 → log2 vehicle/camptothecin viability = 1.45; viability with camptothecin (% of control) = 6.45; Call = active
CRX #2 → log2 vehicle/camptothecin viability = -0.122; viability with camptothecin (% of control) = 57.2; Call = active
CRX #3 → log2 vehicle/camptothecin viability = 0.963; viability with camptothecin (% of control) = 1.88; Call = active
CRX #4 → log2 vehicle/camptothecin viability = 0.917; viability with camptothecin (% of control) = 44.1; Call = active
TP53INP1 #1 → log2 vehicle/camptothecin viability = 0.0863; viability with camptothecin (% of control) = 75.4; Call = inactive
TP53INP1 #2 → log2 vehicle/camptothecin viability = -0.0381; viability with camptothecin (% of control) = 95.8; Call = inactive
TP53INP1 #3 → log2 vehicle/camptothecin viability = -0.109; viability with camptothecin (% of control) = 99.5; Call = inactive
TP53INP1 #4 → log2 vehicle/camptothecin viability = -0.441; viability with camptothecin (% of control) = 79.2; Call = inactive
PSMA4 #1 → log2 vehicle/camptothecin viability = -0.357; viability with camptothecin (% of control) = 5.8; Call = inactive
PSMA4 #2 → log2 vehicle/camptothecin viability = -0.404; viability with camptothecin (% of control) = 15.4; Call = inactive
PSMA4 #3 → log2 vehicle/camptothecin viability = -0.313; viability with camptothecin (% of control) = 12.7; Call = inactive
SCGB1A1 #1 → log2 vehicle/camptothecin viability = 0.0773; viability with camptothecin (% of control) = 37.5; Call = inactive
SCGB1A1 #2 → log2 vehicle/camptothecin viability = 0.198; viability with camptothecin (% of control) = 50.7; Call = inactive
SCGB1A1 #3 → log2 vehicle/camptothecin viability = 0.43; viability with camptothecin (% of control) = 51.9; Call = inactive
SCGB1A1 #4 → log2 vehicle/camptothecin viability = -0.34; viability with camptothecin (% of control) = 45.8; Call = inactive
CACNA1F #1 → log2 vehicle/camptothecin viability = -0.325; viability with camptothecin (% of control) = 108; Call = inactive
CACNA1F #2 → log2 vehicle/camptothecin viability = -0.376; viability with camptothecin (% of control) = 108; Call = inactive
CACNA1F #3 → log2 vehicle/camptothecin viability = -0.513; viability with camptothecin (% of control) = 115; Call = inactive
CACNA1F #4 → log2 vehicle/camptothecin viability = 0.586; viability with camptothecin (% of control) = 30.2; Call = inactive
SLC35B2 #1 → log2 vehicle/camptothecin viability = 0.299; viability with camptothecin (% of control) = 58.6; Call = inactive
SLC35B2 #2 → log2 vehicle/camptothecin viability = 0.252; viability with camptothecin (% of control) = 65.5; Call = inactive
SLC35B2 #3 → log2 vehicle/camptothecin viability = -0.493; viability with camptothecin (% of control) = 64.9; Call = inactive
SLC35B2 #4 → log2 vehicle/camptothecin viability = -0.642; viability with camptothecin (% of control) = 69.6; Call = inactive
CYP24A1 #1 → log2 vehicle/camptothecin viability = -0.183; viability with camptothecin (% of control) = 61.5; Call = inactive
CYP24A1 #2 → log2 vehicle/camptothecin viability = 0.204; viability with camptothecin (% of control) = 56.6; Call = inactive
CYP24A1 #3 → log2 vehicle/camptothecin viability = 0.00555; viability with camptothecin (% of control) = 62.4; Call = inactive
KMT2D #1 → log2 vehicle/camptothecin viability = -0.264; viability with camptothecin (% of control) = 50.7; Call = inactive
KMT2D #2 → log2 vehicle/camptothecin viability = 0.194; viability with camptothecin (% of control) = 84.9; Call = inactive
KMT2D #3 → log2 vehicle/camptothecin viability = -0.0837; viability with camptothecin (% of control) = 98.6; Call = inactive
KMT2D #4 → log2 vehicle/camptothecin viability = -0.285; viability with camptothecin (% of control) = 95.7; Call = inactive
MAPK10 #1 → log2 vehicle/camptothecin viability = -0.108; viability with camptothecin (% of control) = 84.6; Call = inactive
MAPK10 #2 → log2 vehicle/camptothecin viability = -0.568; viability with camptothecin (% of control) = 85.9; Call = inactive
MAPK10 #3 → log2 vehicle/camptothecin viability = -0.343; viability with camptothecin (% of control) = 104; Call = inactive
MAPK10 #4 → log2 vehicle/camptothecin viability = -0.155; viability with camptothecin (% of control) = 98.6; Call = inactive

Entries listed above with an active call (4):
CRX #1 → log2 vehicle/camptothecin viability = 1.45; viability with camptothecin (% of control) = 6.45; Call = active
CRX #2 → log2 vehicle/camptothecin viability = -0.122; viability with camptothecin (% of control) = 57.2; Call = active
CRX #3 → log2 vehicle/camptothecin viability = 0.963; viability with camptothecin (% of control) = 1.88; Call = active
CRX #4 → log2 vehicle/camptothecin viability = 0.917; viability with camptothecin (% of control) = 44.1; Call = active
